Experimental data published in PubChem BioAssay AID256 (DTP/NCI, 2004).
The list shows only some results of the screen, not a fair sample: it gathers tests that were run many times, whatever their T/C, doses with no T/C, and many T/C values between a quarter and a half above the control. Other doses and runs of a compound stand elsewhere. T/C is the treated group as % of the vehicle group. Some entries give survivors of the animals treated and no T/C: the source holds a T/C of zero for them, seemingly a mark for toxic or unscored doses. Some survivor counts are full or nearly so, which does not show that the dose was tolerated: the source hardly ever lists a survival T/C far under the control, and the zero likely stands for such cases as well. Survivors were counted at the toxicity check, usually on the fifth day, unless a day is given; later deaths do not show. Schedules are NCI's codes, read here as Q, the interval in days (D) or hours (H), X, the number of doses. Where survival is the endpoint, the PubChem record calls one and a half times the control and up active, and a quarter to a half above the control has no call in these data; cut-offs in other NCI protocols can differ. Some T/C values are followed by the survivors on the day toxicity was checked, most often the fifth; where none is given, no animal had died by that day. Some doses were run more than once; their values stand side by side, smallest first. Additions like (4×) give the number of equal values in this list.

Test system: CD2F1 mice, L1210 leukemia ip, survival T/C
Assay: NCI In Vivo Anticancer Drug Screen. Data for tumor model L1210 Leukemia (intraperitoneal) in CD2F1 (CDF1) mice
Details: higher T/C = longer survival
Outline: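 Each value reflects a quotient of treated over vehicle control outcomes in mice with a transplanted tumor.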

[1] = T/C endpoint: mean survival time, dose: 100.0 mg/kg/injection, schedule: Q01DX009 (ip), vehicle: Klucel (hydroxypropylcellulose) (HPC)
[2] = T/C endpoint: mean survival time, dose: 200.0 mg/kg/injection, schedule: Q01DX009 (ip), vehicle: Klucel (hydroxypropylcellulose) (HPC)

For `Nc1nc(F)nc2nc[nH]c12`, the survivor count (T/C endpoint: mean survival time, dose: 75.0 mg/kg/injection, schedule: Q01DX001 (ip), vehicle: other) was 0 of 6, the survivor count (T/C endpoint: mean survival time, dose: 150.0 mg/kg/injection, schedule: Q01DX001 (ip), vehicle: other) was 0 of 6 and the survivor count (T/C endpoint: mean survival time, dose: 300.0 mg/kg/injection, schedule: Q01DX001 (ip), vehicle: other) was 0 of 6.
With `C1=C(c2ccc(-c3ccccc3)cc2)Nc2ccccc2S1` the survivor count (T/C endpoint: mean survival time, dose: 400.0 mg/kg/injection, schedule: Q04DX002 (ip), vehicle: other) was 0 of 3.
`Cc1cc(N(CCOS(C)(=O)=O)CCOS(C)(=O)=O)ccc1C=Nc1ccc(-c2nc(Cc3ccccc3)sc2C)cc1` was tested, and the T/C (T/C endpoint: mean survival time, dose: 25.0 mg/kg/injection, schedule: Q01DX009 (ip), vehicle: Klucel (hydroxypropylcellulose) (HPC)) was 127 % of control, the T/C (T/C endpoint: mean survival time, dose: 50.0 mg/kg/injection, schedule: Q01DX009 (ip), vehicle: Klucel (hydroxypropylcellulose) (HPC)) was 130 % of control and the T/C [1] was 141 % of control. The T/C [2] was 137 % of control, the survivor count [2] was 5 of 6 and the survivor count (T/C endpoint: mean survival time, dose: 400.0 mg/kg/injection, schedule: Q01DX009 (ip), vehicle: Klucel (hydroxypropylcellulose) (HPC)) was 6 of 6. For the same compound, the T/C (T/C endpoint: median survival time, dose: 25.0 mg/kg/injection, schedule: Q01DX005 (ip), vehicle: Klucel (hydroxypropylcellulose) (HPC), evaluated on day 30) was 116 (2×), 117, 119, 123 (2×), 127, 130, 133 [5 of 6 alive], 135 % of control, the T/C (T/C endpoint: median survival time, dose: 25.0 mg/kg/injection, schedule: Q01DX005 (ip), vehicle: Klucel (hydroxypropylcellulose) (HPC), evaluated on day 60) was 134 % of control and the T/C (T/C endpoint: median survival time, dose: 25.0 mg/kg/injection, schedule: Q01DX009 (ip), vehicle: Klucel (hydroxypropylcellulose) (HPC), evaluated on day 30) was 107, 116, 120, 121, 126, 131, 132, 135 (2×), 147 % of control. For the same compound, the T/C (T/C endpoint: median survival time, dose: 25.0 mg/kg/injection, schedule: Q01DX009 (ip), vehicle: Klucel (hydroxypropylcellulose) (HPC), evaluated on day 60) was 120 % of control [5 of 6 alive], the T/C (T/C endpoint: median survival time, dose: 50.0 mg/kg/injection, schedule: Q01DX005 (ip), vehicle: Klucel (hydroxypropylcellulose) (HPC), evaluated on day 30) was 114, 122 (2×), 123 [5 of 6 alive], 128 [5 of 6 alive], 131, 135 (2×), 139, 142 % of control and the T/C (T/C endpoint: median survival time, dose: 50.0 mg/kg/injection, schedule: Q01DX005 (ip), vehicle: Klucel (hydroxypropylcellulose) (HPC), evaluated on day 60) was 146 % of control. The T/C (T/C endpoint: median survival time, dose: 50.0 mg/kg/injection, schedule: Q01DX009 (ip), vehicle: Klucel (hydroxypropylcellulose) (HPC), evaluated on day 30) was 104, 121 (2×), 125, 129, 137, 142 (3×), 148 % of control, the T/C (T/C endpoint: median survival time, dose: 50.0 mg/kg/injection, schedule: Q01DX009 (ip), vehicle: Klucel (hydroxypropylcellulose) (HPC), evaluated on day 60) was 128 % of control [5 of 6 alive] and the T/C (T/C endpoint: median survival time, dose: 100.0 mg/kg/injection, schedule: Q01DX005 (ip), vehicle: Klucel (hydroxypropylcellulose) (HPC), evaluated on day 30) was 123, 133, 136, 142 (2×), 146, 147 [5 of 6 alive], 151, 156, 158 % of control. For the same compound, the T/C (T/C endpoint: median survival time, dose: 100.0 mg/kg/injection, schedule: Q01DX005 (ip), vehicle: Klucel (hydroxypropylcellulose) (HPC), evaluated on day 60) was 145 % of control, the T/C (T/C endpoint: median survival time, dose: 100.0 mg/kg/injection, schedule: Q01DX009 (ip), vehicle: Klucel (hydroxypropylcellulose) (HPC), evaluated on day 30) was 110, 113, 117, 120, 121, 128, 132, 133, 137 [5 of 6 alive], 148 % of control and the T/C (T/C endpoint: median survival time, dose: 100.0 mg/kg/injection, schedule: Q01DX009 (ip), vehicle: Klucel (hydroxypropylcellulose) (HPC), evaluated on day 60) was 140 % of control. For the same compound, the T/C (T/C endpoint: median survival time, dose: 200.0 mg/kg/injection, schedule: Q01DX005 (ip), vehicle: Klucel (hydroxypropylcellulose) (HPC), evaluated on day 30) was 91, 104, 113, 117, 119 [5 of 6 alive], 132, 133, 138, 144, 173 % of control, the T/C (T/C endpoint: median survival time, dose: 200.0 mg/kg/injection, schedule: Q01DX005 (ip), vehicle: Klucel (hydroxypropylcellulose) (HPC), evaluated on day 60) was 158 % of control and the T/C (T/C endpoint: median survival time, dose: 200.0 mg/kg/injection, schedule: Q01DX009 (ip), vehicle: Klucel (hydroxypropylcellulose) (HPC), evaluated on day 30) was 89, 107, 108, 110, 111, 116, 118, 123, 132, 165 % of control. For the same compound, the T/C (T/C endpoint: median survival time, dose: 200.0 mg/kg/injection, schedule: Q01DX009 (ip), vehicle: Klucel (hydroxypropylcellulose) (HPC), evaluated on day 60) was 142 % of control, the T/C (T/C endpoint: median survival time, dose: 400.0 mg/kg/injection, schedule: Q01DX005 (ip), vehicle: Klucel (hydroxypropylcellulose) (HPC), evaluated on day 30) was 89, 95 [5 of 6 alive], 98, 109, 113, 114, 118, 120, 135 [5 of 6 alive], 188 % of control and the T/C (T/C endpoint: median survival time, dose: 400.0 mg/kg/injection, schedule: Q01DX005 (ip), vehicle: Klucel (hydroxypropylcellulose) (HPC), evaluated on day 60) was 189 % of control. For the same compound, the T/C (T/C endpoint: median survival time, dose: 400.0 mg/kg/injection, schedule: Q01DX009 (ip), vehicle: Klucel (hydroxypropylcellulose) (HPC), evaluated on day 30) was 87 [5 of 6 alive], 93, 96 [5 of 6 alive], 98 (2×), 100, 101, 112, 156 % of control, the T/C (T/C endpoint: median survival time, dose: 400.0 mg/kg/injection, schedule: Q01DX009 (ip), vehicle: Klucel (hydroxypropylcellulose) (HPC), evaluated on day 60) was 122 % of control and the survivor count (T/C endpoint: median survival time, dose: 400.0 mg/kg/injection, schedule: Q01DX009 (ip), vehicle: Klucel (hydroxypropylcellulose) (HPC)) was 6 of 6.
With `O=C(Sc1cn(C2CC(O)C(CO)O2)c(=O)[nH]c1=O)c1ccc(N(CCCl)CCCl)cc1` (stereo not drawn) the T/C (T/C endpoint: mean survival time, dose: 100.0 mg/kg/injection, schedule: Q01DX005 (ip), vehicle: water) was 135 % of control and the T/C (T/C endpoint: mean survival time, dose: 150.0 mg/kg/injection, schedule: Q01DX005 (ip), vehicle: water) was 141 % of control [5 of 6 alive].
For `Cc1ccc(C(=O)Nc2ncn(C3CC(O)C(CO)O3)c(=O)n2)cc1` (stereo not drawn), the T/C (T/C endpoint: mean survival time, dose: 25.0 mg/kg/injection, schedule: Q01DX005 (ip), vehicle: saline with Tween-80) was 128 % of control and the survivor count (T/C endpoint: mean survival time, dose: 100.0 mg/kg/injection, schedule: Q01DX005 (ip), vehicle: saline with Tween-80) was 6 of 6.
In the case of `CN(C)C(=O)Nc1cccc(OS(=O)(=O)N(C)C)c1`, the survivor count (T/C endpoint: mean survival time, dose: 400.0 mg/kg/injection, schedule: Q04DX003 (ip), vehicle: saline with Tween-80) is reported as 3 of 6.
With `NC(N)=N/N=C\c1c2ccccc2cc2ccccc12` the T/C (T/C endpoint: mean survival time, dose: 6.25 mg/kg/injection, schedule: Q01DX009 (ip), vehicle: water) was 134 % of control, the survivor count (T/C endpoint: mean survival time, dose: 12.5 mg/kg/injection, schedule: Q01DX009 (ip), vehicle: water) was 2 of 6 and the survivor count (T/C endpoint: mean survival time, dose: 25.0 mg/kg/injection, schedule: Q01DX009 (ip), vehicle: water) was 1 of 6. The survivor count (T/C endpoint: mean survival time, dose: 50.0 mg/kg/injection, schedule: Q01DX009 (ip), vehicle: water) was 0 of 6, the survivor count (T/C endpoint: mean survival time, dose: 100.0 mg/kg/injection, schedule: Q01DX009 (ip), vehicle: water) was 0 of 6 and the survivor count (T/C endpoint: mean survival time, dose: 200.0 mg/kg/injection, schedule: Q01DX009 (ip), vehicle: water) was 0 of 6.
For `COc1ccc(OC)c(/C=C/c2ccnc3ccccc23)c1`, the survivor count (T/C endpoint: median survival time, dose: 800.0 mg/kg/injection, schedule: Q01DX009 (ip), vehicle: saline with Tween-80) was 2 of 6.
For `Nc1ncc(C2OC(CO)C(O)C2O)c(=O)[nH]1` (stereo not drawn), the T/C (T/C endpoint: median survival time, dose: 16.0 mg/kg/injection, schedule: Q01DX005 (ip), vehicle: saline, evaluated on day 30) was 132 % of control, the T/C (T/C endpoint: median survival time, dose: 16.0 mg/kg/injection, schedule: Q01DX005 (ip), vehicle: saline, evaluated on day 45) was 136 % of control and the T/C (T/C endpoint: median survival time, dose: 32.0 mg/kg/injection, schedule: Q01DX005 (ip), vehicle: saline, evaluated on day 30) was 134 % of control. For the same compound, the T/C (T/C endpoint: median survival time, dose: 32.0 mg/kg/injection, schedule: Q01DX005 (ip), vehicle: saline, evaluated on day 45) was 148 % of control, the T/C (T/C endpoint: median survival time, dose: 64.0 mg/kg/injection, schedule: Q01DX005 (ip), vehicle: saline) was 145 % of control and the survivor count (T/C endpoint: median survival time, dose: 256.0 mg/kg/injection, schedule: Q01DX005 (ip), vehicle: saline) was 4 of 6. For the same compound, the survivor count (T/C endpoint: median survival time, dose: 512.0 mg/kg/injection, schedule: Q01DX005 (ip), vehicle: saline) was 0 of 6.
In the case of `O=C(CCc1ccc(O)cc1)ON1C(=O)CCC1=O`, the survivor count [1] is reported as 3 of 3 and the survivor count [2] is reported as 2 of 3.
In the case of `CCC(=O)Nc1ncc([N+](=O)[O-])s1`, the survivor count (T/C endpoint: mean survival time, dose: 200.0 mg/kg/injection, schedule: Q01DX009 (ip), vehicle: saline with Tween-80) is reported as 2 of 3.
For `O=C(O)CCC(O)C(=O)O.[NH-]C1CCCCC1[NH-].[Pt+2]` (stereo not drawn), the T/C (T/C endpoint: median survival time, dose: 6.25 mg/kg/injection, schedule: Q04DX003 (ip), vehicle: saline) was 135 % of control, the T/C (T/C endpoint: median survival time, dose: 25.0 mg/kg/injection, schedule: Q04DX003 (ip), vehicle: saline) was 134 % of control and the T/C (T/C endpoint: median survival time, dose: 100.0 mg/kg/injection, schedule: Q04DX003 (ip), vehicle: saline) was 146 % of control [5 of 6 alive]. The survivor count (T/C endpoint: median survival time, dose: 200.0 mg/kg/injection, schedule: Q04DX003 (ip), vehicle: saline) was 2 of 6.
`C=CCOCC(O)CN1CCCCC1` (stereo not drawn) was tested, and the survivor count (T/C endpoint: mean survival time, dose: 200.0 mg/kg/injection, schedule: Q01DX009 (ip), vehicle: saline) was 0 of 3.
